In publication PMC11125064:
These are yes or no findings as the source states them, for the method shown. Binding calls can cover weak binding; strength is not graded here.

Chains of the proteins cited; added tags and fusions are not shown.
UniProt K4DEK0: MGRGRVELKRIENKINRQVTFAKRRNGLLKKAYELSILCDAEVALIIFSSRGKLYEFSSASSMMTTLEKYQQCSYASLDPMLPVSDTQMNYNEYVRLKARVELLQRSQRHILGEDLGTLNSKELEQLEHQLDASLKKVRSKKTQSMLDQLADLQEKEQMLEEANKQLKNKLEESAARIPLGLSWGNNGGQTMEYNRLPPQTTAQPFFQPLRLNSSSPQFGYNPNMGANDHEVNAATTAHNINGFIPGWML

Target: SlMBP21 (tomato (Solanum lycopersicum)) (UniProt K4DEK0)
Assay: two-hybrid; yeast two-hybrid; SlMBP21 ORF in pGBKT7 as bait (Y2HGold), ORFs of the partners in pGADT7 as prey (Y187); growth on QDO (SD without Trp, Leu, His, Ade) and blue colour on QDO/X (with X-alpha-Gal); self-activation of the bait was negative

SFT (SINGLE FLOWER TRUSS) (from UniProt Q84XL0)
binding: binds
